The source of these data is US9403797B2, “5-(pyridin-2-yl-amino)-pyrazine-2-carbonitrile compounds and their therapeutic use” (Cancer Research Technology Limited, priority 2011, dated 2016).

This data set is described as follows: Comparative oral bioavailability by limited sampling in vivo pharmacokinetics. The following applies: female, BALB/c, mouse, plasma, 10 mg/kg.

As for `CNc1cc(Nc2cnc(C#N)c(O[C@@H]3CCNC3)n2)ncc1C(=O)OC` [PAPC-B-10, (R)-Methyl 6-((5-cyano-6-(pyrrolidin-3-yloxy)pyrazin-2-yl)amino)-4-(methylamino)nicotinate], the concentration at 1 h was at least 10 nM.
